Source: PubChem BioAssay AID493014 (National Center for Advancing Translational Sciences (NCATS), 2011)
Screen size: about 340,000 compounds; about 170 (0.05%) were called active. The shares of active, inactive and inconclusive entries below differ from those in the screen. Calls come from the whole dose curve; as a rule, active = well fitted inhibition curve with a large enough effect in the signal ratio, with a control signal flat (not every such curve was filed as active); inconclusive = small, poorly fitted or top-dose-only effect, or effect the other way, or a change in a side signal; inactive = flat fitted curve, though single readings scatter; the % refers to the signal ratio. Potencies of inconclusive entries are doubtful fits and often do not repeat.

Assay: qHTS Assay to Find Inhibitors of Chronic Active B-Cell Receptor Signaling;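 for activity change, negative = inhibition: plate controls were basal doxycycline-induced cells for no effect and cells given 10 µM MG132 for full effect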
Details: ABC-DLBCL IkBa-CBG/CBR reporter, luminescence ratio (green luciferase fused to IkBa over red control in TMD8 lymphoma cells), 4 h
In short: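 Concentration-response series (up to 46 uM) were applied to TMD8 dual-reporter cells for 4 h at 37C with doxycycline. Green/red ratio, after filter-overlap correction, defined %Activity; red signal alone was normalised to basal cells and zero luminescence.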

[1] = activity change, negative = inhibition: at 46.1 µM (top of the series) unless noted
Potency is the fitted concentration of half-maximal effect.

With `O=S(=O)(NCCCN1CCOCC1)c1ccc2ccccc2c1` the activity change, negative = inhibition [1] was inconclusive: -15.1%.

For `CCOc1cc(/C=N/NC(=O)CN2CCOCC2)ccc1OCc1ccc(Cl)cc1`, the activity change, negative = inhibition [1] was inconclusive: 2.63%.

With `Cc1ccc(CCNC(=O)C2CCN(S(=O)(=O)c3ccc4c(c3)NC(=O)C(C)S4)CC2)cc1` (stereo not given) the activity change, negative = inhibition [1] was inconclusive: -4%.

With `CC(C)c1cc(=O)n2c(nc3ccccc32)[nH]1` the Potency [1] was inconclusive: 15.8 µM [falling, partial curve].

In the case of `Cc1ccc(-c2nc(CS(=O)CC(=O)NCc3ccccn3)c(C)o2)cc1` (stereo not given), the activity change, negative = inhibition [1] is reported as inconclusive: 12.3%.

For `CN(C)S(=O)(=O)c1cccc(NC(=O)COC(=O)c2cccn2C)c1`, the Potency [1] was inconclusive: 17.8 µM [falling, partial curve, poor fit].

In the case of `O=C(OCC(=O)N1CCCCC1)c1cccs1`, the activity change, negative = inhibition [1] is reported as inconclusive: 5.04%.

For `CC(=O)c1cccc(NC(=S)NC(=O)c2ccccc2C)c1`, the Potency [1] was inconclusive: 1 µM [falling, full curve, poor fit].

With `O=C(CSc1cccc[n+]1[O-])c1ccc(Cl)s1` the Potency [1] was inconclusive: 3.55 µM [cytotoxic, full curve].

With `Cc1ccc(C(=O)NCC(=O)NCC(=O)OCC(=O)c2ccc(Br)cc2)cc1` the activity change, negative = inhibition [1] was inconclusive: 5.46%.

In the case of `CC(=O)Nc1ccc(Nc2c3c4c(cccc4n(C)c2=O)C(=O)c2ccccc2-3)cc1`, the activity change, negative = inhibition [1] is reported as “inactive”.

For `COc1ccc(/C=C2\SC(=S)N(CCC(=O)Nc3cccc(O)c3)C2=O)cc1OC`, the Potency [1] was inconclusive: 20 µM [falling, single point].

For `O=C(NCc1ccccc1Cl)C(=O)NCC(c1ccco1)S(=O)(=O)c1cccs1` (stereo not given), the activity change, negative = inhibition [1] was “inactive”.

In the case of `CCOc1ccc(/C=N/n2c(SC)nnc(C(C)(C)C)c2=O)cc1`, the activity change, negative = inhibition [1] is reported as inconclusive: 1.45%.

For `CCc1ccc(S(=O)(=O)N/N=C\c2ccc3c(c2)OCO3)cc1`, the activity change, negative = inhibition [1] was “inactive”.

In the case of `COc1ccccc1NC(=S)N(Cc1ccco1)Cc1cc2cc(C)c(C)cc2[nH]c1=O`, the activity change, negative = inhibition [1] is reported as “inactive”.

For `CC(=O)Nc1sc(N/N=C/c2ccc(N(C)C)cc2)nc1-c1ccc(C)cc1`, the activity change, negative = inhibition [1] was “inactive”.

With `COc1cccc(CNc2nc3ccccc3n2C)c1O` the activity change, negative = inhibition [1] was “inactive”.

With `Cc1ccc(NC(=O)COc2ccccc2C=O)cc1Cl` the Potency [1] was inconclusive: 35.5 µM [falling, single point].

For `NNC(=O)c1cc(Br)cs1`, the Potency [1] was inconclusive: 20.6 µM [falling, single point].

With `O=C(CSc1nnc(CN2CCOCC2)n1-c1ccccc1)Nc1ccc(Cl)cc1` the activity change, negative = inhibition [1] was inconclusive: -4.17%.

In the case of `CN1C(=O)c2ccc(NC(=O)CSc3ccccc3)cc2C1=O`, the activity change, negative = inhibition [1] is reported as “inactive”.

With `Cc1ccc(-n2ncc3c(N4CCN(C)CC4)ncnc32)cc1` the activity change, negative = inhibition [1] was “inactive”.

With `CC1CCCCN1CC(=O)Nc1ccccc1Sc1ccccc1` (stereo not given) the Potency [1] was inconclusive: 29.1 µM [rising, partial curve, poor fit].

With `Cc1ccc(N=C2SC(C(=O)Nc3ccc(OC(F)(F)F)cc3)C(N)=C2C(=O)Nc2c(C)cc(C)cc2C)cc1` (stereo not given) the Potency [1] was inconclusive: 23.1 µM [rising, single point].

In the case of `COc1cc(OC)cc(C(=O)NCc2ccc3c(c2)CCN3C(=O)c2ccccc2)c1`, the Potency [1] is reported as inconclusive: 7.08 µM [falling, full curve].

For `CCn1c(SCC(=O)O)nc2sc3c(c2c1=O)CCC3`, the activity change, negative = inhibition [1] was inconclusive: -17.2%.

In the case of `O=C(O)CCCC(=O)Nc1ccc(N=Nc2ccccc2)cc1`, the Potency [1] is reported as inconclusive: 11.2 µM [falling, partial curve].

For `Cc1oc2c(c(C)cc3oc(=O)c(CC(=O)N[C@@H](CC(C)C)C(=O)O)c(C)c32)c1C`, the activity change, negative = inhibition [1] was inconclusive: 0.455%.

For `CC1CC(C)CN(C(=O)CSc2nnc(N)s2)C1` (stereo not given), the activity change, negative = inhibition [1] was “inactive”.

With `Cc1ccc(C(=O)O)cc1NC(=S)NC(=O)c1ccc([N+](=O)[O-])c(C)c1` the activity change, negative = inhibition [1] was “inactive”.

For `COC(=O)c1cnc(SCC(=O)c2ccccc2)n1C`, the Potency [1] was inconclusive: 35.5 µM [falling, single point].

In the case of `CCCCn1nc2cc(C(=O)NCCc3cccs3)ccc2c1OCC`, the Potency [1] is reported as inconclusive: 1.3 µM [rising, full curve, poor fit].

With `CCN(CC)S(=O)(=O)c1ccc(C(=O)NCc2n[nH]c(=S)n2-c2ccccc2OC)cc1` the Potency [1] was inconclusive: 7.08 µM [falling, partial curve].

For `Cc1cccc(Nc2ncnc3c2cnn3C)c1C`, the activity change, negative = inhibition [1] was “inactive”.

With `CN(C)S(=O)(=O)c1ccc(NC(=O)CN2CCCc3ccccc32)cc1` the activity change, negative = inhibition [1] was inconclusive: 0.475%.

In the case of `O=C(c1ccccc1)c1ccc(NCCCn2ccnc2)c([N+](=O)[O-])c1`, the activity change, negative = inhibition [1] is reported as “inactive”.

For `COc1ccc(C(=O)c2nc3c(n2O)CCCCC3)cc1`, the Potency [1] was inconclusive: 25.9 µM [rising, single point].

In the case of `CCc1[nH]nc2c1C1(CCN(C(=O)OCc3ccccc3)CC1)C(C#N)=C(N)O2`, the activity change, negative = inhibition [1] is reported as inconclusive: -13.4%.

For `Cc1cc(C(=O)N/N=C/c2ccc[nH]2)no1`, the activity change, negative = inhibition [1] was inconclusive: -11.3%.

With `COc1ccc(S(=O)(=O)N2CCC(CN3C(=O)c4cccc5cccc(c45)C3=O)CC2)cc1` the activity change, negative = inhibition [1] was “inactive”.

In the case of `Cc1ccccc1C(=O)NC(=S)N(C)CCc1ccccn1`, the Potency [1] is reported as inconclusive: 35.5 µM [falling, single point].

For `COc1cccc(CNC(=O)c2n[nH]c3ccccc23)c1`, the Potency [1] was inconclusive: 31.6 µM [falling, partial curve].

With `O=C(N/N=C/c1c[nH]c2ccccc12)c1cc(-c2ccc3ccccc3c2)n[nH]1` the Potency [1] was inconclusive: 0.517 µM [rising, full curve].

For `O=c1c2ccccc2ncn1Cc1ccc(Cl)cc1`, the activity change, negative = inhibition [1] was “inactive”.

In the case of `O=C1CC2(CCN(C(=O)c3c(F)cccc3Cl)CC2)Oc2ccccc21`, the activity change, negative = inhibition [1] is reported as inconclusive: -8.21%.

In the case of `CC(C)(C)OC(=O)C[C@H]1C/C=C\C[C@@H](CC(=O)N(CCO)Cc2ccccc2)C(=O)N[C@H](Cc2c[nH]c3ccccc23)COC1=O`, the activity change, negative = inhibition [1] is reported as “inactive”.

With `O=C(CNC(=O)c1ccccc1O)N/N=C/c1ccccn1` the Potency [1] was inconclusive: 31.6 µM [rising, single point].

With `CC(C)CN(C(=O)c1ccc(S(=O)(=O)N2CCCC2)cc1)C1CCS(=O)(=O)C1` (stereo not given) the activity change, negative = inhibition [1] was inconclusive: 2.9%.

In the case of `O=C(CSc1ccccn1)c1ccc2c(c1)OCO2`, the activity change, negative = inhibition [1] is reported as inconclusive: 6.07%.

With `CN=c1scc(-c2cccs2)n1/N=C/c1ccccc1O` the Potency [1] was inconclusive: 6.51 µM [cytotoxic, single point].

For `Cc1cccc(OCCCC(=O)NNC(=O)c2ccc(F)cc2)c1`, the activity change, negative = inhibition [1] was inconclusive: 2.11%.

With `CC(C)(C)c1ccccc1OCCOCCN1CCCCCC1` the activity change, negative = inhibition [1] was “inactive”.

For `CC1CCC(C(C)C)C2=C1C(C#N)(C#N)C(C#N)(C#N)C(c1ccccc1)N2` (stereo not given), the activity change, negative = inhibition [1] was inconclusive: 1.68%.

For `CNC(=S)N(Cc1ccco1)Cc1cc2cc3c(cc2[nH]c1=O)OCCO3`, the Potency [1] was inconclusive: 2.59 µM [falling, partial curve, poor fit].

In the case of `COc1cccc(-c2cc(C(=O)Nc3cccnc3)no2)c1`, the Potency [1] is reported as inconclusive: 29.1 µM [rising, single point].

For `O=C(Cn1ncc(Cl)c(Cl)c1=O)N1CCN(Cc2ccccc2)CC1`, the activity change, negative = inhibition [1] was inconclusive: 3.78%.

In the case of `COC(=O)C1=C(C)N(Cc2ccccc2)C(=S)N[C@H]1c1cccc(C(F)(F)F)c1`, the activity change, negative = inhibition [1] is reported as inconclusive: 25.1% and the activity change, negative = inhibition (at 46.1 µM (top of the series)) is reported as inactive: 0.9%.

With `CC(=O)n1nc(-c2ccccc2)nc1NCc1ccc(N(C)C)cc1` the activity change, negative = inhibition [1] was inconclusive: 5.94%.

With `CCOC(=O)c1sc(NC(=O)/C=C/c2cnn(CC)c2C)c(C(=O)OCC)c1C` the activity change, negative = inhibition [1] was “inactive”.

In the case of `C/C(=N\NC(=O)c1cc(C)nc2ccccc12)c1ccncc1`, the Potency [1] is reported as inconclusive: 20 µM [falling, single point].

In the case of `O=C(Nc1ccc(Cl)cc1Cl)c1csc(-c2cccnc2)n1`, the activity change, negative = inhibition [1] is reported as inconclusive: 8.2%.

For `Cc1cccc(C)c1-n1c(C)cc(/C=N\Nc2ccc([N+](=O)[O-])cn2)c1C`, the activity change, negative = inhibition [1] was inconclusive: 16.2%.

For `O=C(c1ccc(N2CCCCC2)c([N+](=O)[O-])c1)N1CCN(c2ccccn2)CC1`, the activity change, negative = inhibition [1] was inconclusive: 17.7%.

For `Cn1c(=O)cc(N2CCc3ccccc32)[nH]c1=O`, the activity change, negative = inhibition [1] was inconclusive: 2.67%.

For `O=C(CNC(=O)c1ccccc1)OCC(=O)c1ccc(Cl)s1`, the activity change, negative = inhibition [1] was inconclusive: -1.35%.

In the case of `O=[N+]([O-])/C(C(=C(Cl)Cl)N1CCN(Cc2ccccc2)CC1)=C1\NCCN1Cc1ccc(Cl)nc1`, the activity change, negative = inhibition [1] is reported as “inactive”.

With `CCn1c(Cn2nnc(-c3ccccc3)n2)nnc1SCC(=O)Nc1ccc(C(C)=O)cc1` the Potency [1] was inconclusive: 28.2 µM [rising, partial curve, poor fit].

In the case of `COc1ccc(C)cc1S(=O)(=O)N(CC(=O)Nc1cccc([N+](=O)[O-])c1)c1ccccc1`, the activity change, negative = inhibition [1] is reported as “inactive”.

For `COc1ccccc1/C=N/Nc1nncc2ccccc12`, the Potency [1] was inconclusive: 25.9 µM [rising, single point].

With `Cc1ccc(NC(=O)C(c2ccccc2)N2CCN(CC(=O)NC3CC3)CC2)cc1Cl` (stereo not given) the activity change, negative = inhibition [1] was inconclusive: 7.48%.

For `COc1ccccc1OCC(=O)Nc1cc(Cl)ccc1N1CCCCC1`, the Potency [1] was inconclusive: 4.61 µM [falling, partial curve].

In the case of `Nc1nc(Nc2ccc(Cl)cc2Cl)nc(C(F)(F)F)n1`, the activity change, negative = inhibition [1] is reported as inconclusive: 5.54%.

With `CN1C(=O)C(C)(C)c2cc(S(=O)(=O)N3CCN(c4ccc(F)cc4)CC3)ccc21` the activity change, negative = inhibition [1] was inconclusive: -0.16%.

In the case of `CC(C)(C)OC(=O)N/N=C\c1ccc([N+](=O)[O-])s1`, the activity change, negative = inhibition [1] is reported as inconclusive: -1.27%.

With `Cc1c(Cc2ccccc2)c(=O)oc2c(O)c(O)ccc12` the activity change, negative = inhibition [1] was “inactive”.

With `CCC(C)N(C(=O)CSc1nnc(-c2cccs2)n1C1CC1)C1CCS(=O)(=O)C1` (stereo not given) the activity change, negative = inhibition [1] was inconclusive: -0.911%.

In the case of `CCOC(=O)C1CCN(CC(=O)c2c(C)n(C)c3ccc(OC)cc23)CC1`, the activity change, negative = inhibition [1] is reported as “inactive”.

In the case of `CCOc1ccc(N(CC(=O)N/N=C/c2ccccn2)S(=O)(=O)c2ccc(Cl)cc2)cc1`, the activity change, negative = inhibition [1] is reported as “inactive”.
